PubChem BioAssay AID1259254, NCATS, 2017

- Purpose: 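Gene knock-downs that lead to re-replication, shown by excess G2 DNA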 (primary screen)
- Cell system: human HCT116 colorectal cancer cells
- Reagent: single siRNA against human genes
- Time to read-out: 3 days
- Measured: 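Imaged Hoechst DNA stain sorts each cell into a cycle phase by DNA amount; per plate, G2 fraction set to 0% for non-targeting and 100% for GMNN siRNA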
- Reading the numbers: G2 robust z-score: higher = more G2 cells, more excess DNA replication
- Hit rule: 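Active siRNAs have a G2 robust z of 5 or more median absolute deviations over the median, which in these data means about 38% or higher of GMNN control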
The deposit covers about 59,000 reagents; this is a random part of them. Over the whole deposit, about 1,550 (2.6%) got an active call. 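G2 share is only a proxy for re-replication; each gene was hit by three separate siRNAs, and active genes were retested.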 The numbers tell different reagents against one gene apart. Further read-outs or replicates are left out here. Reagent sequences are not shown. Not given: the amount of reagent.

Against CFAP97D1 (CFAP97 domain containing 1) #1, the values are G2 robust z-score 3.45; inactive.
For CFAP97D1 (CFAP97 domain containing 1) #2, the values are G2 robust z-score 0.337; inactive.
CFAP97D1 (CFAP97 domain containing 1) #3 showed G2 robust z-score -0.964; inactive.
Depletion of TP53TG3 (TP53 target 3) #1 came out at: G2 robust z-score 0.975; inactive.
After knock-down of TP53TG3 (TP53 target 3) #2, the screen gave G2 robust z-score 0.286; inactive.
After knock-down of TP53TG3 (TP53 target 3) #3, the record shows G2 robust z-score -0.376; inactive.
Depletion of NPEPPS (aminopeptidase puromycin sensitive) #1 gave: G2 robust z-score 1.64; inactive.
Against NPEPPS (aminopeptidase puromycin sensitive) #2 the deposit lists G2 robust z-score -0.52; inactive.
Depletion of NPEPPS (aminopeptidase puromycin sensitive) #3 resulted in: G2 robust z-score -0.797; inactive.
With knock-down of FBXO15 (F-box protein 15) #1 the results were G2 robust z-score -0.123; inactive.
After knock-down of FBXO15 (F-box protein 15) #2, the record shows G2 robust z-score 0.443; inactive.
Silencing of FBXO15 (F-box protein 15) #3 resulted in: G2 robust z-score 1.83; inactive.

Reformatted: results already given
gene knocked down	reagent	G2 robust z-score	outcome
NPEPPS (aminopeptidase puromycin sensitive)	1	1.64	inactive
NPEPPS (aminopeptidase puromycin sensitive)	2	-0.52	inactive
